The other results are listed elsewhere or left out.
Compound: C1=CC2=C(C=CC(=C2)/C=C\3/C(=O)NC(=NCC4=CC=CS4)S3)N=C1
Experiment: log2 fold change, soluble protein after heating vs DMSO (PISA); higher = thermal stabilisation; K562 lysate, 10 uM; active = over 0.2 and 3.5 SD of the protein, either way, in both replicates (recomputed)
How it was run: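 Soluble protein was defined as the supernatant remaining after 21,000xg for 90 min, following pooling of heated aliquots and adjustment to 0.5% NP-40 at 4°C. Before that, crude K562 extract at 1 mg/mL protein in PBS pH 7.4 with 1 mM MgCl2 was treated with 10 μM compound for 30 min and heated for 3 min across 48°C-58°C. Quantification used TMTpro 16plex LC-MS/MS with channel sums equalised, and values are log-two fold changes in thermal stability relative to solvent controls from duplicates.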

Chains of the proteins cited; added tags and fusions are not shown. Lines headed by an entry give the natural chain unless they say otherwise; changes in a name come on top.
UniProt P18858, whole entry, looked up: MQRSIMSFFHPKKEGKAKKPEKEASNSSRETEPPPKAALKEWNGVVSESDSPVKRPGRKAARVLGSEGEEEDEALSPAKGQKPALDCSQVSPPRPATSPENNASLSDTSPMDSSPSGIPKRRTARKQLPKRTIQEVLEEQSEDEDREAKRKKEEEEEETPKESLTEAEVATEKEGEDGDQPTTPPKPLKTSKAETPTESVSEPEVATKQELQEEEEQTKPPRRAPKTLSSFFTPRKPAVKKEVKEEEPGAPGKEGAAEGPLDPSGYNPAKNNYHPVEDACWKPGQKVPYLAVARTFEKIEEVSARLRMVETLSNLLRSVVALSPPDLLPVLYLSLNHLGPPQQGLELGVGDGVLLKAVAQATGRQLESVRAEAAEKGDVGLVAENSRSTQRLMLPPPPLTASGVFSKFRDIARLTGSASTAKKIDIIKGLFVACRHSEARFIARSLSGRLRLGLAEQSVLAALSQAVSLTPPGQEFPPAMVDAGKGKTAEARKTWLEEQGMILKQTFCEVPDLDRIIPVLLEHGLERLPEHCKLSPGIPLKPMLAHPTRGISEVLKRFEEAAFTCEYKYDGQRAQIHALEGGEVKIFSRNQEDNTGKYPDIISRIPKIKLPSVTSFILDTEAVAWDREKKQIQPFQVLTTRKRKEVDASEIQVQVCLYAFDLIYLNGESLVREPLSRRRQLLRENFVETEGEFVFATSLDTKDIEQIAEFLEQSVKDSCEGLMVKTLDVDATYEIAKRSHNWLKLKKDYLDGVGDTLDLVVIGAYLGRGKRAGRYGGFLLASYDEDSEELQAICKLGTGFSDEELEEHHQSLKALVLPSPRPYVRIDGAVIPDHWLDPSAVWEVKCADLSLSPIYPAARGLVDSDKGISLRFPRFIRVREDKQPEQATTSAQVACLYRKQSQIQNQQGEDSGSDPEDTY
UniProt Q8IWU2: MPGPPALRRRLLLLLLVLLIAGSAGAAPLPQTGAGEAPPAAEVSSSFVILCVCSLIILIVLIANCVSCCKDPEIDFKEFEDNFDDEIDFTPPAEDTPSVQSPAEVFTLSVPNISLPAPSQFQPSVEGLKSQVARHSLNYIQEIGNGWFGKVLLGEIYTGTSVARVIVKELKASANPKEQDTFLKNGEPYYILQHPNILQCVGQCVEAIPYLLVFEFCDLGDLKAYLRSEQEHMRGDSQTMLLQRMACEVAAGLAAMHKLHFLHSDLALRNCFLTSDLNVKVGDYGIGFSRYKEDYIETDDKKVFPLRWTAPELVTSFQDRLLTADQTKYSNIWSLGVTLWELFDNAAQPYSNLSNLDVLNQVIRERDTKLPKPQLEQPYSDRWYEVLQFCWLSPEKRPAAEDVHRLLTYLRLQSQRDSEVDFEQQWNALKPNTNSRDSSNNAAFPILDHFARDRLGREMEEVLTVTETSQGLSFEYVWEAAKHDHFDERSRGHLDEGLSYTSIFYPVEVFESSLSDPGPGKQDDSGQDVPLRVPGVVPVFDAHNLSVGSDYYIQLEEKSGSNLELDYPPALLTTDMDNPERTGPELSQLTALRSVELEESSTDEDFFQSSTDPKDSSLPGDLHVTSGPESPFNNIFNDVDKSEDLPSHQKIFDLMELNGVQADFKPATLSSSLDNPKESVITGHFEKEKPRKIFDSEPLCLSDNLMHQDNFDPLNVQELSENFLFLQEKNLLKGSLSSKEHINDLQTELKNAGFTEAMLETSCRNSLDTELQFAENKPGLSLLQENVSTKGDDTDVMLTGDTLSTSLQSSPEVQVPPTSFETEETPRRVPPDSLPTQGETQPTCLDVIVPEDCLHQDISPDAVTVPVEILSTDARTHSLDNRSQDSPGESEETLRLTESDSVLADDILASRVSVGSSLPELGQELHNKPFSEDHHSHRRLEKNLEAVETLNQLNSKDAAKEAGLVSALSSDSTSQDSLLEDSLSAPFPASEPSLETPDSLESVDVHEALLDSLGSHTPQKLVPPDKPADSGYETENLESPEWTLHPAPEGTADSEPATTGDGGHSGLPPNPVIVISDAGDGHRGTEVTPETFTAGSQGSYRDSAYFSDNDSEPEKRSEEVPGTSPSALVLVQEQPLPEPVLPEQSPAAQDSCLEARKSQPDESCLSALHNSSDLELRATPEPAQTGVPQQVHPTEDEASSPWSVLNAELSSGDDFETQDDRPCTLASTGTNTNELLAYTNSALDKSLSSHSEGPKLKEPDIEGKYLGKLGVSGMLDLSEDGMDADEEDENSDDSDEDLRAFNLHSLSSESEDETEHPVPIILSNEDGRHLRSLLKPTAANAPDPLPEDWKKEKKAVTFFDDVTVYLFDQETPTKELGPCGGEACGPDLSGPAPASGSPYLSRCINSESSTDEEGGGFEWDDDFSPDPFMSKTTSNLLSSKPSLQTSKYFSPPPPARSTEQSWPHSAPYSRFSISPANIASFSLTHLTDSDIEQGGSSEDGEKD
UniProt P02545: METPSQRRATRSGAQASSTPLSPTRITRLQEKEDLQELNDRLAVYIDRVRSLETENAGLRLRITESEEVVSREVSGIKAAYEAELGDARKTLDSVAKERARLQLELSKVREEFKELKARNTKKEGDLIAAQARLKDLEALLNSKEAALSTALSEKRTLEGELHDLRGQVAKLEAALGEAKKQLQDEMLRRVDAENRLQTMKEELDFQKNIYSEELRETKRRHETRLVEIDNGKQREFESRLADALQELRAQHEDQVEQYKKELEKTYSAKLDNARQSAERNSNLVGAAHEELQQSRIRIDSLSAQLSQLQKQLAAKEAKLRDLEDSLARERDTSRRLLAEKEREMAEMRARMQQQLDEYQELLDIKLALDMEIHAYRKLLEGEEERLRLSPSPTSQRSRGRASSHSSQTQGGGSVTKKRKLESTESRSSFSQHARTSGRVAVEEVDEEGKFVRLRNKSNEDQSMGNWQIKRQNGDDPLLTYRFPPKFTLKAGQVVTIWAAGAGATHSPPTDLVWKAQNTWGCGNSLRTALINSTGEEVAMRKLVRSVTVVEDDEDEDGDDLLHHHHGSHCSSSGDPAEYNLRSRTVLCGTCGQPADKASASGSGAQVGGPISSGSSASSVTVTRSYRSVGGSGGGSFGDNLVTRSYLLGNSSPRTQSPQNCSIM
UniProt Q86U70: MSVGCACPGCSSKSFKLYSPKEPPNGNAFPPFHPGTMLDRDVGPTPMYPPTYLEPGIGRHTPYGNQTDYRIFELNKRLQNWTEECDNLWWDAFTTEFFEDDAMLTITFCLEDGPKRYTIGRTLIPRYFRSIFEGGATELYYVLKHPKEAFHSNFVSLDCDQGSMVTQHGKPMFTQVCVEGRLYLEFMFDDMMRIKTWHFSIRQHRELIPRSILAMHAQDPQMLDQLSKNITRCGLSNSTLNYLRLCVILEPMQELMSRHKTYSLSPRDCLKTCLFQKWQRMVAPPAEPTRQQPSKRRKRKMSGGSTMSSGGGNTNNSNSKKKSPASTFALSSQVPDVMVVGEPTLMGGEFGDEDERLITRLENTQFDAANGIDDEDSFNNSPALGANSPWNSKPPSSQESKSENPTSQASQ
UniProt P07864: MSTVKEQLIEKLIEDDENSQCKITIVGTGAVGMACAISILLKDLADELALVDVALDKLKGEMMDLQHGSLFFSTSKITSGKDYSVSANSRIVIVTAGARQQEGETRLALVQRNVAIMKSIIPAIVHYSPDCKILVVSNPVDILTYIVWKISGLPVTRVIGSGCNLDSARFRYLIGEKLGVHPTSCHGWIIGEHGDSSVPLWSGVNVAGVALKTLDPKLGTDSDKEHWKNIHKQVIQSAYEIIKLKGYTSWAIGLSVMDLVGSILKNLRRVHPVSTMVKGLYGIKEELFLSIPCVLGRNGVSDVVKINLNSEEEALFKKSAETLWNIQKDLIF
UniProt Q9H9A6: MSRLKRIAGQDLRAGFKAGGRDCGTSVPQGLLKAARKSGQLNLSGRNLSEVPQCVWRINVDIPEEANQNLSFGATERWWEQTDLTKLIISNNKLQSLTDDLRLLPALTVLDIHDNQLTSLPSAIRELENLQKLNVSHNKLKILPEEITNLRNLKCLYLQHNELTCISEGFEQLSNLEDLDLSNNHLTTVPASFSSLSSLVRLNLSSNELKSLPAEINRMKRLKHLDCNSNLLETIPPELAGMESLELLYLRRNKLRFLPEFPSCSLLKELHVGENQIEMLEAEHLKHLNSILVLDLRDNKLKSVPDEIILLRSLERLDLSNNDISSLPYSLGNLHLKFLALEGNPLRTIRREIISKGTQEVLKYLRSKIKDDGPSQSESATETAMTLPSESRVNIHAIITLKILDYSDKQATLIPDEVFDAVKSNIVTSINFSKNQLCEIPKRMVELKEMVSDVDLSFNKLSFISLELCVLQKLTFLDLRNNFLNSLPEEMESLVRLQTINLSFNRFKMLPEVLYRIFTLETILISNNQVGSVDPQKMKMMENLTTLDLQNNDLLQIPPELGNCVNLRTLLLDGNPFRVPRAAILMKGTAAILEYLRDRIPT
UniProt Q6P9F7: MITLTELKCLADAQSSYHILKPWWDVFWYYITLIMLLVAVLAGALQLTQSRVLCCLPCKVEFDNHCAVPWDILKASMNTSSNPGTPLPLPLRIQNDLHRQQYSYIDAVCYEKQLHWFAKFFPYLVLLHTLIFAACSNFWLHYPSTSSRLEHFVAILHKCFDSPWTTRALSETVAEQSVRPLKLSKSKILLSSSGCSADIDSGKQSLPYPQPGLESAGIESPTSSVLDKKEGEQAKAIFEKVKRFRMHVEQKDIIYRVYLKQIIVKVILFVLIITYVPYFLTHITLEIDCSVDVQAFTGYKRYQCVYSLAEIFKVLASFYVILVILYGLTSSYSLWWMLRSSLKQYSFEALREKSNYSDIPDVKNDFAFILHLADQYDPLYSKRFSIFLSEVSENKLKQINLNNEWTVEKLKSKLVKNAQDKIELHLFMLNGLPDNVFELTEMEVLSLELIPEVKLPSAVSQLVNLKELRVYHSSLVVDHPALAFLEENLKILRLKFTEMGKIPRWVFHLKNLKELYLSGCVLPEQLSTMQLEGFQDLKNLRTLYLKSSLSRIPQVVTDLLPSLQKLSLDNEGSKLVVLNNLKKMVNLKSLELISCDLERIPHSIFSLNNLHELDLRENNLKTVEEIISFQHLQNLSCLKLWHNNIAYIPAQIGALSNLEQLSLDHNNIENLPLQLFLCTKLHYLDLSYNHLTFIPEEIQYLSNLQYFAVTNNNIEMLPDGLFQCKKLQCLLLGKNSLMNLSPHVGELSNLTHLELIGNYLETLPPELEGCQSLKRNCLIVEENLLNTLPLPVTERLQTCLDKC
UniProt Q9Y608: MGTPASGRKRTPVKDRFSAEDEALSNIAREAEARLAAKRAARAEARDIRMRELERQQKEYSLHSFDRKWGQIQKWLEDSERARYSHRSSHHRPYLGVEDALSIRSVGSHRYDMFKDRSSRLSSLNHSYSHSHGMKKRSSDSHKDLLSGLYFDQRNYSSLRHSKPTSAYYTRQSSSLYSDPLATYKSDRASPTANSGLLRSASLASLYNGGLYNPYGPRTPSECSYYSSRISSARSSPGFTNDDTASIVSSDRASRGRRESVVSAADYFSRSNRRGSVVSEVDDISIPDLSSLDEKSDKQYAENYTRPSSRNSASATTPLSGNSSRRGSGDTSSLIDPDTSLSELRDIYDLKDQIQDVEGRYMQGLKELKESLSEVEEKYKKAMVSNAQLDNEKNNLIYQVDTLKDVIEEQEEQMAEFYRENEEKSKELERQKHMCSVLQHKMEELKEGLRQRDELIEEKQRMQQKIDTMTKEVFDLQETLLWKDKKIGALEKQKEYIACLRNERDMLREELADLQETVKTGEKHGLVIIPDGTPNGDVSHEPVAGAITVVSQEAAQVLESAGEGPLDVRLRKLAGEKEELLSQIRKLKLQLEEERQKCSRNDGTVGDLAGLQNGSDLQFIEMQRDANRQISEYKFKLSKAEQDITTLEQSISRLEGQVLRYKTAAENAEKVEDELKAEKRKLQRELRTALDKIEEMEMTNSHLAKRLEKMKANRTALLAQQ
UniProt O15116: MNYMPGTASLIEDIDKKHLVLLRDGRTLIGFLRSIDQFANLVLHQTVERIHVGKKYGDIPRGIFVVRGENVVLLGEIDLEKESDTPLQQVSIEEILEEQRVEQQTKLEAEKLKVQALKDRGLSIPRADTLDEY
UniProt P17931, whole entry, looked up: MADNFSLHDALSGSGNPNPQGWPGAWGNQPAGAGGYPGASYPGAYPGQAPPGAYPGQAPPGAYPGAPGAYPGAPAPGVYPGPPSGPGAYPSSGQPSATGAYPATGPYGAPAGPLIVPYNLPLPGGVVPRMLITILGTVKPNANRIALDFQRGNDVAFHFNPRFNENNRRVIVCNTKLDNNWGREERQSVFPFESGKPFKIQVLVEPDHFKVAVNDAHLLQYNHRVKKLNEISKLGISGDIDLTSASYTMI
UniProt Q9NUP9: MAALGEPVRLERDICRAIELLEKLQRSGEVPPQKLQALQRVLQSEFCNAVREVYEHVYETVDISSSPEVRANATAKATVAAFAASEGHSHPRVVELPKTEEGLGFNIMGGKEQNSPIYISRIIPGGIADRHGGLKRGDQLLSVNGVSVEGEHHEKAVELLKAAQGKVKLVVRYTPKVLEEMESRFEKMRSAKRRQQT

log2 fold change, inactive:
LIG1 (UniProt P18858) 0.002
LMTK2 (UniProt Q8IWU2) 0.002
LMNA (UniProt P02545) -0.019
LARS2 (UniProt Q15031) -0.012
LINGO1 (UniProt Q96FE5) -0.016
LDB1 (UniProt Q86U70) 0.042
LRRC57 (UniProt Q8N9N7) -0.005
LDHC (UniProt P07864) -0.018
LENG1 (UniProt Q96BZ8) -0.011
LRRC8A (UniProt Q8IWT6) -0.007
LRWD1 (UniProt Q9UFC0) 0.032
LRRC40 (UniProt Q9H9A6) -0.002
LCP2 (UniProt Q13094) -0.012
LRCH3 (UniProt Q96II8) -0.013
LSM8 (UniProt O95777) 0.027
LIN54 (UniProt Q6MZP7) 0.055
LRPAP1 (UniProt P30533) -0.03
LRRC8B (UniProt Q6P9F7) 0.268
LSS (UniProt P48449) 0.053
LRRC8C (UniProt Q8TDW0) -0.016
LPIN1 isoform 7 (UniProt Q14693) 0.003
LRRFIP2 (UniProt Q9Y608) -0.001
LSM6 (UniProt P62312) -0.007
LSM1 (UniProt O15116) 0.027
LMAN1 (UniProt P49257) 0
LRRC14 (UniProt Q15048) 0.121
LETM1 (UniProt O95202) 0.012
LMNB1 (UniProt P20700) -0.019
LPCAT3 (UniProt Q6P1A2) 0.078
LIG4 (UniProt P49917) 0.028
LRCH4 (UniProt O75427) -0.003
LMO2 isoform 3 (UniProt P25791) -0.025
LGALS3 (UniProt P17931) 0.081
LSM3 (UniProt P62310) -0.001
LCP1 (UniProt P13796) -0.008
LCMT2 (UniProt O60294) -0.075
LDAH isoform 2 (UniProt Q9H6V9) -0.023
LIN7C (UniProt Q9NUP9) -0.026

At a glance, some entries already given.
log2 fold change, inactive:
LMNA (UniProt P02545) -0.019
LARS2 (UniProt Q15031) -0.012
